Experimental data as given in patent US11827580B2, “Aminotetraline activators of serotonin receptors” (ATAI Life Sciences AG, priority 2021, dated 2023).
The match of structure and compound is tentative.

The chains behind the UniProt entries cited, without tags or fusion partners. Residues count along the entry.
UniProt P28223, whole entry: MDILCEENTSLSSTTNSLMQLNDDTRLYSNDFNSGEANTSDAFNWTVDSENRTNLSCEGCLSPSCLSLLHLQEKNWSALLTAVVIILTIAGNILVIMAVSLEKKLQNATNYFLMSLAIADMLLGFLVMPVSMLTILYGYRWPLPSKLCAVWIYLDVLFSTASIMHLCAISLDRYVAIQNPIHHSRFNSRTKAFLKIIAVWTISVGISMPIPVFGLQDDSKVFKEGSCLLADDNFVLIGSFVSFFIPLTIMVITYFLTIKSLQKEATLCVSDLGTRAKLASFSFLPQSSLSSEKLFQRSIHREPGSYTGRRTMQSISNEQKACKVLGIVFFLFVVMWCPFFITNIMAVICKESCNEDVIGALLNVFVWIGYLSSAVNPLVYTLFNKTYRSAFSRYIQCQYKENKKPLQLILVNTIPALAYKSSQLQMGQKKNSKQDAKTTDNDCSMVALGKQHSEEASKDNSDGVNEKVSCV
UniProt P08908, whole entry: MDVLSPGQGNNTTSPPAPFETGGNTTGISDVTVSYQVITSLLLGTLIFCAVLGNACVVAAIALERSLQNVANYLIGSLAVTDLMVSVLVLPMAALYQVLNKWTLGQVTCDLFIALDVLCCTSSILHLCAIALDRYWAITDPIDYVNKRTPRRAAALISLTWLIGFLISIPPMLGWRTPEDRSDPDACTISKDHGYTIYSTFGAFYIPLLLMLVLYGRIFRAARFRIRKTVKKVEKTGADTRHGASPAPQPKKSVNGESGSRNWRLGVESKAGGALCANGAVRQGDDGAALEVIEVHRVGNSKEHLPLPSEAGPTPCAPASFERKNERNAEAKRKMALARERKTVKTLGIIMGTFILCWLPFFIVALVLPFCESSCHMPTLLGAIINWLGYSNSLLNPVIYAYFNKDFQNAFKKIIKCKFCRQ
UniProt P41595, whole entry: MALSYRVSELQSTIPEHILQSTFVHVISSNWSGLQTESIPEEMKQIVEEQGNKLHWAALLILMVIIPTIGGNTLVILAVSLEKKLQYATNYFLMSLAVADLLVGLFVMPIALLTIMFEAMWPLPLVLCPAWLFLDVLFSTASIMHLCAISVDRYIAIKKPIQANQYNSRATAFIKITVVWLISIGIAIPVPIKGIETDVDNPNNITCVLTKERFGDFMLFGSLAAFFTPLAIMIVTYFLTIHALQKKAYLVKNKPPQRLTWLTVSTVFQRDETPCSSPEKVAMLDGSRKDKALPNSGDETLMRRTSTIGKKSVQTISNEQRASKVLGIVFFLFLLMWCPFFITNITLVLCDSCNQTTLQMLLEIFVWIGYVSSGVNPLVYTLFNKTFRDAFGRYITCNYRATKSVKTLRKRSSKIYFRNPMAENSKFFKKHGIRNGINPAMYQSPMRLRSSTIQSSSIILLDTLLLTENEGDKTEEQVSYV
UniProt P28335, 33-458 limits assumed: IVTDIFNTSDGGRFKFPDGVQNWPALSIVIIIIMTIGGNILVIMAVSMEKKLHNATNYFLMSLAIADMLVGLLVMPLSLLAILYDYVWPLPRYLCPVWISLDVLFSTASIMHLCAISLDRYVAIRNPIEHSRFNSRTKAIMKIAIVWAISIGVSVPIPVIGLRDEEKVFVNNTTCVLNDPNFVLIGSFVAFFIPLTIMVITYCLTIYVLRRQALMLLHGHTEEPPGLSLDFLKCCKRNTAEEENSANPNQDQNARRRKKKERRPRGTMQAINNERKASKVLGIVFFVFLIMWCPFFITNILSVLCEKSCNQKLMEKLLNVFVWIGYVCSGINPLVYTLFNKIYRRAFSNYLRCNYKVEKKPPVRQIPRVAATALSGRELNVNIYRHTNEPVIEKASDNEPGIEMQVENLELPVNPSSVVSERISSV

Assays:
5HT2A [1] = biological target: T1, 5HT2A (Homo sapiens, UniProt P28223); assay: 5HT2A activation (%) max at two concentrations (Table 1); assay type: cell-based; conditions: tested form: TFA
5-HT1A [2] = biological target: T2, 5-HT1A (Homo sapiens, UniProt P08908); assay: cAMP secondary messenger pathway assay (HitHunter cAMP, Gi agonist mode); conditions: read-out: EC50 5-HT1A (Gi signaling), CHO cells, forskolin present, tested form: TFA
Description: cAMP Secondary Messenger Pathway Assay Method (Performed by DiscoveRx Eurofins)
DiscoverX has developed a panel of cell lines stably expressing non-tagged GPCRs that signal through cAMP. Hit Hunter® cAMP assays monitor the activation of a GPCR via Gi and Gs secondary messenger signaling in a homogenous, non-imaging assay format using a technology developed by DiscoverX called Enzyme Fragment Complementation (EFC) with β-galactosidase (β-Gal) as the functional reporter. The enzyme is split into two complementary portions: EA for Enzyme Acceptor and ED for Enzyme Donor. ED is fused to cAMP and in the assay competes with cAMP generated by cells for binding to a cAMP-specific antibody. Active β-Gal is formed by complementation of exogenous EA to any unbound ED-cAMP. Active enzyme can then convert a chemiluminescent substrate, generating an output signal detectable on a standard microplate reader.
cAMP Hunter cell lines were expanded from freezer stocks according to standard procedures. Human 5-HT1A receptor-mediated cAMP signaling was evaluated in stably transfected hamster-derived CHO cells. Cells were seeded in a total volume of 20 μL into white walled, 384-well microplates and incubated at 37° C. overnight. cAMP modulation was determined using the DiscoverX HitHunter cAMP XS+ assay. […]
Compound activity was analyzed using CBIS data analysis suite (ChemInnovation, CA). […]

5HT2A [3] = biological target: T1, 5HT2A; assay: Calcium mobilization assay (Gq signaling); conditions: tested form: TFA
Description: (§1) Calcium Mobilization Assay Method (Performed by DiscoveRx Eurofins)
(§2) The Calcium No-Wash^PLUS assay monitors the activation of a GPCR via Gq secondary messenger signaling in a live cell, non-imaging assay format. Calcium mobilization in PathHunter® cell lines or other cell lines stably expressing Gq-coupled GPCRs is monitored using a calcium-sensitive dye that is loaded into cells. GPCR activation by a compound results in the release of calcium from intracellular stores and an increase in dye fluorescence that is measured in real-time.
(§3) Cell lines expressing the GPCR of interest were expanded from freezer stocks according to standard procedures. Human 5-HT2A, 5-HT2B or 5-HT2C receptor-mediated calcium mobilization was evaluated in stably transfected human-derived U2OS (5-HT2A or 5-HT2B) or HEK (5-HT2B) cells. Cells were seeded in a total volume of 20 μL into black-walled, clear-bottom, Poly-D-lysine coated 384-well microplates and incubated at 37° C. overnight prior to testing.
(§4) Assays were performed in 1× Dye Loading Buffer consisting of 1× Dye, 1× Additive A and 2.5 mM Probenecid in HBSS/20 mM Hepes. Probenicid was prepared fresh. Cells were loaded with dye prior to testing. Media was aspirated from cells and replaced with 20 μL Dye Loading Buffer. Cells were incubated for 45 minutes at room temperature.
(§5) For agonist determination, cells were incubated with sample to induce response. After dye loading, cells were removed from the incubator and 10 μL HBSS/20 mM Hepes was added. 3× vehicle was included in the buffer when performing agonist dose curves to define the EC80 for subsequent antagonist assays. Cells were incubated for 30 minutes at room temperature in the dark to equilibrate plate temperature.
(§6) Intermediate dilution of sample stocks was performed to generate 4× sample in assay buffer. Compound agonist activity was measured on a FLIPR Tetra (MDS). Calcium mobilization was monitored for 2 minutes and 10 μL 4× sample in HBSS/20 mM Hepes was added to the cells seconds into the assay.
(§7) Compound activity data was analyzed using CBIS data analysis suite (ChemInnovation, CA). For agonist mode assays, percentage activity is calculated using the following formula: % Activity=100%×(mean RFU of test sample−mean RFU of vehicle control)/(mean MAX RFU control ligand−mean RFU of vehicle control).
(§8) In these studies, the MAX RFU was generated by using 0.1 μM serotonin for the calcium mobilization assay.

Human 5-HT2B receptor = Human 5-HT2B receptor (Homo sapiens, UniProt P41595); assay: Calcium mobilization assay (Gq signaling); conditions: read-out: EC50 5-HT2B (Gq signaling), tested form: TFA
Description: as §1, §2, §3, §4, §5, §6, §7, §8

Human 5-HT2C receptor = Human 5-HT2C receptor (Homo sapiens, UniProt P28335); assay: Calcium mobilization assay (Gq signaling); conditions: read-out: EC50 5-HT2C (Gq signaling), tested form: TFA
Description: as §1, §2, §3, §4, §5, §6, §7, §8

5HT2A [4] = biological target: T1, 5HT2A; assay: PathHunter β-Arrestin assay; conditions: tested form: TFA
Description: (§9) Arrestin Pathway (Performed by DiscoverX Eurofins)
(§10) The PathHunter® β-Arrestin assay monitors the activation of a GPCR in a homogenous, non-imaging assay format using a technology developed by DiscoverX called Enzyme Fragment Complementation (EFC) with β-galactosidase (β-Gal) as the functional reporter. […] EA is fused to β-Arrestin and PK is fused to the GPCR of interest. When the GPCR is activated and β-Arrestin is recruited to the receptor, ED and EA complementation occurs, restoring β-Gal activity which is measured using chemiluminescent PathHunter® Detection Reagents.
PathHunter cell lines (DiscoveRx Eurofins) were expanded from freezer stocks according to standard procedures. Human 5-HT2A receptor-mediated GPCR β-arrestin activity was evaluated in stably transfected human-derived U2OS cells. Cells were seeded in a total […] into white walled, 384-well microplates and incubated at 37° C. overnight prior to testing.
For agonist determination, cells were incubated with sample to induce response. Intermediate dilution of sample stocks was performed to generate 5× sample in assay buffer. 5 μL of 5× sample was added to cells and incubated at 37° C. or room temperature for 120 minutes. Vehicle concentration was 1%.
(§11) β-Arrestin assay signal was generated through a single addition of 12.5 or 15 μL (50% v/v) of PathHunter Detection reagent cocktail, followed by a one hour incubation at room temperature. Microplates were read following signal generation with a PerkinElmer Envision™ instrument for chemiluminescent signal detection.
(§12) Compound activity was analyzed using CBIS data analysis suite (ChemInnovation, CA). For agonist mode assays, percentage activity was calculated using the following formula: % Activity=100%×(mean RLU of test sample−mean RLU of vehicle control)/(mean MAX control ligand−mean RLU of vehicle control).
In these studies, the MAX control ligand response was generated using 1 μM serotonin.

5-HT1A [5] = biological target: T2, 5-HT1A; assay: β-arrestin signaling assay; conditions: read-out: EC50 5-HT1A (β-arrestin signaling); tested form: TFA
Description: as §9, §10
For agonist determination, cells were incubated with sample to induce response. Intermediate dilution of sample stocks was performed to generate 5× sample in assay buffer. […]
as §11
as §12, with “control). […]” for “control).”

COc1cc(I)c(OC)c2c1CC(N)CC2 (centres unmarked)
5HT2A activation (%) max @ 03 μM (5HT2A [1]; 03 μM [sic]): 55.4%
5HT2A activation (%) max @ 30 μM (5HT2A [1]; 30 μM (first value of the cell)): 72.2%
EC50 (5-HT1A [2]): 369 nM
potency bias, 5-HT2A Gq-mediated signaling versus β-arrestin recruitment (5HT2A [3]; FIG. 1B): 14 fold
increase in potency at 5-HT2A compared to 5-HT2B (5HT2A [3]; Gq signaling, FIG. 1A): > 1136 fold
potency across 5-HT2A and 5-HT2C (5HT2A [3]; Gq signaling): near equipotency
max activation of 5-HT2A Gq-mediated signaling (5HT2A [3]; compared to the maximum serotonin response): 82%
EC50 (5HT2A [3]; read-out: EC50 5-HT2A (Gq signaling), calcium mobilization): 8.8 nM
EC50 (Human 5-HT2B receptor): > 10000 nM
EC50 (Human 5-HT2C receptor): 5.6 nM
maximum efficacy levels (partial agonism) (5HT2A [4]; pathway not given, β-arrestin by context): 35%
EC50 (5HT2A [4]; read-out: EC50 5-HT2A (β-arrestin signaling), U2OS cells): 120 nM
agonism / potency for β-arrestin recruitment at 5-HT2A (5HT2A [4]): partial agonism
EC50 (5-HT1A [5]): > 10000 nM
